PubChem BioAssay AID248 (DTP/NCI, 2004)
The list does not hold the whole screen: it gathers tests that were run many times, whatever their T/C, doses with no T/C, and many T/C values between a quarter and a half above the control. Other doses and runs of a compound stand elsewhere. T/C is the treated group as % of the vehicle group. Some entries give survivors of the animals treated and no T/C: the source files T/C as zero there, which appears to mark a toxic dose or a test without result, not a measured value. Some survivor counts are full or nearly so, which does not show that the dose was tolerated: the source hardly ever lists a survival T/C far under the control, and the zero likely stands for such cases as well. Counts of survivors are from the toxicity check (mostly the fifth day) where no day follows; animals may have died later. Schedules are NCI's codes, read here as Q, the interval in days (D) or hours (H), X, the number of doses. Some entries were tested several times; the results are listed from low to high. Where survival is the endpoint, the PubChem record calls one and a half times the control and up active, and a quarter to a half above the control has no call in these data; cut-offs in other NCI protocols can differ. Some T/C values are followed by the survivors on the day toxicity was checked, most often the fifth; without a count, all were alive then.

Test system: L1210 leukemia ip in BDF1 mice, survival T/C
Test: NCI In Vivo Anticancer Drug Screen. Data for tumor model L1210 Leukemia (intraperitoneal) in B6D2F1 (BDF1) mice
Settings: T/C endpoint: mean survival time, higher T/C = longer survival
[1] = dose: 50.0 mg/kg/injection, schedule: Q04DX003 (ip), vehicle: Klucel (hydroxypropylcellulose) (HPC)

## COc1cc(C=Nc2ccc(-c3csc(COc4ccccc4)n3)cc2)ccc1N(CCCl)CCCl
dose: 7.5 mg/kg/injection, schedule: Q01DX015 (ip), vehicle: carboxymethylcellulose (CMC)
  T/C: 125 % of control
dose: 14.0 mg/kg/injection, schedule: Q01DX015 (ip), vehicle: carboxymethylcellulose (CMC)
  T/C: 125 % of control
dose: 15.0 mg/kg/injection, schedule: Q01DX015 (ip), vehicle: carboxymethylcellulose (CMC)
  T/C: 146 % of control
dose: 22.0 mg/kg/injection, schedule: Q01DX015 (ip), vehicle: carboxymethylcellulose (CMC), evaluated on day 30
  T/C: 132 and 157 % of control
dose: 22.0 mg/kg/injection, schedule: Q01DX015 (ip), vehicle: carboxymethylcellulose (CMC), run until all animals had died
  T/C: 106 [5 of 6 alive] and 114 % of control [5 of 6 alive]
dose: 33.0 mg/kg/injection, schedule: Q01DX015 (ip), vehicle: carboxymethylcellulose (CMC)
  survivor count: 5 of 6
dose: 44.4 mg/kg/injection, schedule: Q01DX001 (ip), vehicle: carboxymethylcellulose (CMC)
  T/C: 138 % of control
dose: 75.0 mg/kg/injection, schedule: Q01DX015 (ip), vehicle: carboxymethylcellulose (CMC)
  survivor count: 3 of 6 and 4 of 6
dose: 100.0 mg/kg/injection, schedule: Q01DX001 (ip), vehicle: carboxymethylcellulose (CMC)
  T/C: 145 % of control
dose: 150.0 mg/kg/injection, schedule: Q01DX001 (ip), vehicle: carboxymethylcellulose (CMC)
  T/C: 127 % of control
dose: 400.0 mg/kg/injection, schedule: Q01DX001 (ip), vehicle: carboxymethylcellulose (CMC)
  survivor count: 0 of 4

## Cc1cccc(OC(=O)Nc2ccc(Cl)cc2)c1
dose: 400.0 mg/kg/injection, schedule: Q01DX009 (ip), vehicle: saline with Tween-80
  survivor count: 3 of 3

## O=C(O)C1C2C=CC(C2)C1C(=O)O.[Cu+2] (centres undefined)
dose: 25.0 mg/kg/injection, schedule: Q04DX003 (ip), vehicle: Klucel (hydroxypropylcellulose) (HPC)
  survivor count: 2 of 6
dose: 40.0 mg/kg/injection, schedule: Q01DX009 (ip), vehicle: Klucel (hydroxypropylcellulose) (HPC)
  survivor count: 0 of 6
[1]
  survivor count: 0 of 6
dose: 100.0 mg/kg/injection, schedule: Q01DX001 (ip), vehicle: Klucel (hydroxypropylcellulose) (HPC)
  survivor count: 0 of 6
dose: 200.0 mg/kg/injection, schedule: Q01DX001 (ip), vehicle: Klucel (hydroxypropylcellulose) (HPC)
  survivor count: 0 of 6
dose: 400.0 mg/kg/injection, schedule: Q01DX001 (ip), vehicle: Klucel (hydroxypropylcellulose) (HPC)
  survivor count: 0 of 6

## Cc1cc(NCC(=O)NN)ccc1Cl
dose: 200.0 mg/kg/injection, schedule: Q04DX002 (ip), vehicle: Klucel (hydroxypropylcellulose) (HPC)
  T/C: 146 % of control
dose: 400.0 mg/kg/injection, schedule: Q04DX002 (ip), vehicle: Klucel (hydroxypropylcellulose) (HPC)
  survivor count: 0 of 3

## CCOC(=O)c1ccc(NCC#N)cc1
dose: 100.0 mg/kg/injection, schedule: Q01DX009 (ip), vehicle: saline with Tween-80
  survivor count: 6 of 6

## O=C(NCCCN1CC1)C(=O)Nc1ccccc1
[1]
  survivor count: 6 of 6
dose: 100.0 mg/kg/injection, schedule: Q04DX003 (ip), vehicle: Klucel (hydroxypropylcellulose) (HPC)
  survivor count: 1 of 6
dose: 200.0 mg/kg/injection, schedule: Q04DX003 (ip), vehicle: Klucel (hydroxypropylcellulose) (HPC)
  survivor count: 0 of 6
dose: 400.0 mg/kg/injection, schedule: Q04DX003 (ip), vehicle: Klucel (hydroxypropylcellulose) (HPC)
  survivor count: 0 of 6

## CC(=O)Oc1cccc2ccc(/C=C/c3cccc[n+]3C)nc12
dose: 64.0 mg/kg/injection, schedule: Q01DX015 (ip), vehicle: carboxymethylcellulose (CMC)
  survivor count: 0 of 6
dose: 128.0 mg/kg/injection, schedule: Q01DX015 (ip), vehicle: carboxymethylcellulose (CMC)
  survivor count: 0 of 6

## Cc1cccc(C)c1N=C=O
dose: 400.0 mg/kg/injection, schedule: Q01DX009 (ip), vehicle: other
  survivor count: 0 of 6

## COc1cc(OC)c(/C=C/c2cc3c4ccccc4ccc3[n+](C)c2)c(OC)c1
dose: 25.0 mg/kg/injection, schedule: Q01DX001 (ip), vehicle: saline with Tween-80
  survivor count: 1 of 3

## CCOC(=O)/C(C#N)=C/NN
dose: 100.0 mg/kg/injection, schedule: Q04DX003 (ip), vehicle: saline
  survivor count: 0 of 4
dose: 200.0 mg/kg/injection, schedule: Q04DX003 (ip), vehicle: saline
  survivor count: 0 of 4
dose: 400.0 mg/kg/injection, schedule: Q04DX003 (ip), vehicle: saline
  survivor count: 0 of 4

## COC(=O)COc1cc(Cl)c(Cl)cc1Cl
dose: 400.0 mg/kg/injection, schedule: Q04DX002 (ip), vehicle: saline with Tween-80
  survivor count: 0 of 3

## COc1cc(/C=C(/C)[N+](=O)[O-])c([N+](=O)[O-])cc1OC
dose: 400.0 mg/kg/injection, schedule: Q01DX001 (ip), vehicle: saline
  survivor count: 2 of 4
